# The supplement of paper PMC12819154, “High-throughput peptide-centric local stability assay extends protein–ligand identification to membrane proteins, tissues and bacteria” (Nature Structural & Molecular Biology, 2025)
# By UniProt entry, the sequences of proteins in these tests, tags left out. Where a name states a change or a piece, a line headed by the entry shows the natural chain unless it says otherwise.
# UniProt Q9D735: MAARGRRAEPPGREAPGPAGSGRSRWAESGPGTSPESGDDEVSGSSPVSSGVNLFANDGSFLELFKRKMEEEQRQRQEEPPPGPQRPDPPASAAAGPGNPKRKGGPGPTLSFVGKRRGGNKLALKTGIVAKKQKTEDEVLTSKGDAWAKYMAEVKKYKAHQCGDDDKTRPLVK
# UniProt Q9DBG7: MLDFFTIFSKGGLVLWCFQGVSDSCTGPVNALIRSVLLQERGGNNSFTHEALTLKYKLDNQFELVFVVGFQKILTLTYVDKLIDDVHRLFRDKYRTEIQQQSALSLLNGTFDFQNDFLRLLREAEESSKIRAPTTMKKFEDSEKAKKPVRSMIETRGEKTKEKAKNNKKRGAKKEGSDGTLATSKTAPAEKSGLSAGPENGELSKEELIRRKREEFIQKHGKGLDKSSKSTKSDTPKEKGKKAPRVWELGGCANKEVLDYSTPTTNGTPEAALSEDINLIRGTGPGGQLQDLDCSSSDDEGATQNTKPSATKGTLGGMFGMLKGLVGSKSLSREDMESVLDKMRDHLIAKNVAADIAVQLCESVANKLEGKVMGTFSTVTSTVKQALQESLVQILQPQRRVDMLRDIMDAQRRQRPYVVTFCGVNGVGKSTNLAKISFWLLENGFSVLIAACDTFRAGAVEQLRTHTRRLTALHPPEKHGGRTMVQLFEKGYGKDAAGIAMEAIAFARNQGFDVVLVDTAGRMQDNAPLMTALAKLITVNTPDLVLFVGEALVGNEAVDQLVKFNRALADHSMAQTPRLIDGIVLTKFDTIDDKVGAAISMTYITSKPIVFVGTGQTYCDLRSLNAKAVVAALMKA
# UniProt Q9D620: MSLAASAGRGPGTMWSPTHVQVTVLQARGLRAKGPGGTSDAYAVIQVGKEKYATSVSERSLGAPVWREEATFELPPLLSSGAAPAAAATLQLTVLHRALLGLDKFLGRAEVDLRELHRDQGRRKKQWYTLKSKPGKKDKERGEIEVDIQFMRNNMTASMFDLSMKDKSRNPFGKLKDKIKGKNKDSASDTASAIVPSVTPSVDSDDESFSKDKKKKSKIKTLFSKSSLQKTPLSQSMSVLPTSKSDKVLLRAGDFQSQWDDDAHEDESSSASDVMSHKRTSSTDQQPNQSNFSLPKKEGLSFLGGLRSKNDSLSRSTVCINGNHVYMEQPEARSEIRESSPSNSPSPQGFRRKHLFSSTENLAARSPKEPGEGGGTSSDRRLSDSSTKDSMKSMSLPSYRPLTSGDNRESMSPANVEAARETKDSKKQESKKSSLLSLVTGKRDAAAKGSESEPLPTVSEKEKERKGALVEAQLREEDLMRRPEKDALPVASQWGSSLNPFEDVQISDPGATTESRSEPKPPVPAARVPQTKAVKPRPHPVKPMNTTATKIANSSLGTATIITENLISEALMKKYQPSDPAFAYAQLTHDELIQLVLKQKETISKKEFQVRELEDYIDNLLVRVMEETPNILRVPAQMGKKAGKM
# UniProt Q9D0I4: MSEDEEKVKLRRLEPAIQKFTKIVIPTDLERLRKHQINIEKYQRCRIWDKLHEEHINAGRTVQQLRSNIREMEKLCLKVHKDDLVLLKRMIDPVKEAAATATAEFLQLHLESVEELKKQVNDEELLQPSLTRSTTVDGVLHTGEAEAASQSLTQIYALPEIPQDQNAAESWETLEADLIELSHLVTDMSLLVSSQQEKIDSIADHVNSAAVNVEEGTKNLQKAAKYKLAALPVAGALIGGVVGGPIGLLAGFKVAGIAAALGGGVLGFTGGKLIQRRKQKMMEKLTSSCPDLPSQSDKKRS
# UniProt Q9CYU6: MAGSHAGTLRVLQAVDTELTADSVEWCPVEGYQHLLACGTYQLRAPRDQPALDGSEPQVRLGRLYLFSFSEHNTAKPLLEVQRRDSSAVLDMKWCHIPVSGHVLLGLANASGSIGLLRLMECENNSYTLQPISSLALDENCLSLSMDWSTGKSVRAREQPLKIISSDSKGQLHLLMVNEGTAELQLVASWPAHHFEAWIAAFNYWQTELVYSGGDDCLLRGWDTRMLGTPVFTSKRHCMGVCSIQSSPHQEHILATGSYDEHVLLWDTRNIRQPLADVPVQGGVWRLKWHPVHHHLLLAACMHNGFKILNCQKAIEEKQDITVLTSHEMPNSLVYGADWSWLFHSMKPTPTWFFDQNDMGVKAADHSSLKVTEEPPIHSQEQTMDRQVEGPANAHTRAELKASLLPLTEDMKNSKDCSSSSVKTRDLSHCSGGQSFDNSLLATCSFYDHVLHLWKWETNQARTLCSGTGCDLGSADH
# UniProt Q9CXW3, whole entry: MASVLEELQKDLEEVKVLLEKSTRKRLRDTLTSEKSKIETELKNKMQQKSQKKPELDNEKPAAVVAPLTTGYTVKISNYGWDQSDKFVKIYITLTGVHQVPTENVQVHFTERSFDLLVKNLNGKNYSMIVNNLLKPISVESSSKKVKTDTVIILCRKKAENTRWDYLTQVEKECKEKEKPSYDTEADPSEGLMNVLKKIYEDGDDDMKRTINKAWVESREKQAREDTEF
# UniProt Q9DAS9: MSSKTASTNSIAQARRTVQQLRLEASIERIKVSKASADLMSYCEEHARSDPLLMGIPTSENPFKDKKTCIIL
# UniProt Q9DBF7: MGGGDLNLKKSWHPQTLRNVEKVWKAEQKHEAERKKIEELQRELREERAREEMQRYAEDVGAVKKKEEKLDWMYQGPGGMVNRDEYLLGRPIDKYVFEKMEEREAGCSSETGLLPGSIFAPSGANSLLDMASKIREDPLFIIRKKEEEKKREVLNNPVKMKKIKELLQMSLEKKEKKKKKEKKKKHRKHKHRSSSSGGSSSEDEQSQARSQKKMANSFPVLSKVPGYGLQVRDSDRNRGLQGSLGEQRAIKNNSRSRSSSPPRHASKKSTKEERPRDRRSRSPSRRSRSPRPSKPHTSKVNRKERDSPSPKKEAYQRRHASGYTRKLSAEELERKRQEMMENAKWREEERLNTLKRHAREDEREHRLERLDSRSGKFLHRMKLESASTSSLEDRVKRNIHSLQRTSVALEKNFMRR
# UniProt Q9CY45: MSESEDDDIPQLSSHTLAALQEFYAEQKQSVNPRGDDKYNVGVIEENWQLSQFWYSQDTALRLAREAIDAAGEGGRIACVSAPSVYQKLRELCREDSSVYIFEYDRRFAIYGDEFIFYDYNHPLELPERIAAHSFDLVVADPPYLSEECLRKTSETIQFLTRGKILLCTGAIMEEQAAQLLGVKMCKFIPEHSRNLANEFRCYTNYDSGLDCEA
# UniProt Q9DB34: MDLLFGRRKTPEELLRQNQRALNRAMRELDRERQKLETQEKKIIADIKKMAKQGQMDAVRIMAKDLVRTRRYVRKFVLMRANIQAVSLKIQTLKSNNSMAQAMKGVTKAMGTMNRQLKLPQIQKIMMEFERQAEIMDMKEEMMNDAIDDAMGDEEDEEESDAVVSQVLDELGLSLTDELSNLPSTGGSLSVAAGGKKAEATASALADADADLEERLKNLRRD
# UniProt Q9D8T7: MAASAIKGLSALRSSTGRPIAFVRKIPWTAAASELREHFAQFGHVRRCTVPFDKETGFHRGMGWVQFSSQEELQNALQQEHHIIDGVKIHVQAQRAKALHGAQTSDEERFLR
# UniProt Q9DC37: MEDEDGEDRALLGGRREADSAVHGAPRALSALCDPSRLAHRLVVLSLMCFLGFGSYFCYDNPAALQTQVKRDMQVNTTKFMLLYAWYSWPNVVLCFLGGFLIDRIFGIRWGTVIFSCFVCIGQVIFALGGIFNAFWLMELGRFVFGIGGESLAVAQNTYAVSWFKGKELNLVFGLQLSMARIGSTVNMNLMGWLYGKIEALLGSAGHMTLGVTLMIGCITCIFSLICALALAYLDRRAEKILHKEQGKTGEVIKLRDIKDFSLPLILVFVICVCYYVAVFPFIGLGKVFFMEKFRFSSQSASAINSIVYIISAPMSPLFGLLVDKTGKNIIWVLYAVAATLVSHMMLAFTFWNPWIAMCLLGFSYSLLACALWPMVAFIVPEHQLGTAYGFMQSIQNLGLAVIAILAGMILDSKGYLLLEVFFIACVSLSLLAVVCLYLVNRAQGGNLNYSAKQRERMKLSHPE
# UniProt Q9DB94: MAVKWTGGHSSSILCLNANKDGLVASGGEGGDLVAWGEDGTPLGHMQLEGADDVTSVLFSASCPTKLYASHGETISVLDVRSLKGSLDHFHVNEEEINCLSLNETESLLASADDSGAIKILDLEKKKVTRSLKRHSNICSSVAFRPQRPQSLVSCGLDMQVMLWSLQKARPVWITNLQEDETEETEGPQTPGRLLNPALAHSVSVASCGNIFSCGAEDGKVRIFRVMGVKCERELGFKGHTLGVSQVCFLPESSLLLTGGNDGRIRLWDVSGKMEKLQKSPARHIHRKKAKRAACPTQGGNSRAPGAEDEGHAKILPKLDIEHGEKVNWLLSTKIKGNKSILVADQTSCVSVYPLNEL
# UniProt Q9CYR6: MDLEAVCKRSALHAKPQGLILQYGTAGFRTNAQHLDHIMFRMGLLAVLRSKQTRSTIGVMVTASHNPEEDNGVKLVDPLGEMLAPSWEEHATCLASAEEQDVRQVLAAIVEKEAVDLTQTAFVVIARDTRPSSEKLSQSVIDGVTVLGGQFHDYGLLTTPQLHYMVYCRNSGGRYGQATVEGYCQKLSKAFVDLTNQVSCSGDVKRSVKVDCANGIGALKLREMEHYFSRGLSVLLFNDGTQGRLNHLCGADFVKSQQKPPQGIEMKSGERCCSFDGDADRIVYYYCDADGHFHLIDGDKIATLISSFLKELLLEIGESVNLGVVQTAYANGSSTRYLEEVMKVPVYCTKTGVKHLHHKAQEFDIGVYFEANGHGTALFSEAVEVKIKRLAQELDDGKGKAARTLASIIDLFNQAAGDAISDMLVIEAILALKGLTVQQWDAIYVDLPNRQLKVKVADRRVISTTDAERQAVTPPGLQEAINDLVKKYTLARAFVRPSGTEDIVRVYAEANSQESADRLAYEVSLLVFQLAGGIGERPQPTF
# UniProt Q9D8B3: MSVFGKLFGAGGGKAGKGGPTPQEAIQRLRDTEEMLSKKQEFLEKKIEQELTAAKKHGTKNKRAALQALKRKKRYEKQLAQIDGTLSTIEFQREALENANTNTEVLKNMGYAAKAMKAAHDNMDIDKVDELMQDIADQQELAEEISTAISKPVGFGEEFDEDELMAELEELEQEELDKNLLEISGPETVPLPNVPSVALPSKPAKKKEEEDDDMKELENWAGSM
# UniProt Q9D198: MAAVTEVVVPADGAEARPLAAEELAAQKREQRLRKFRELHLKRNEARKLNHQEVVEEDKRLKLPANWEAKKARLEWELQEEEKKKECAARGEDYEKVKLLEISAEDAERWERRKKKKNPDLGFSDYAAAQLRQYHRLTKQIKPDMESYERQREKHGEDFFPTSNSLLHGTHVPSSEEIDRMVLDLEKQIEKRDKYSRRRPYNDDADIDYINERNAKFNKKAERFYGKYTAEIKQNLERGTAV
# UniProt Q9D554: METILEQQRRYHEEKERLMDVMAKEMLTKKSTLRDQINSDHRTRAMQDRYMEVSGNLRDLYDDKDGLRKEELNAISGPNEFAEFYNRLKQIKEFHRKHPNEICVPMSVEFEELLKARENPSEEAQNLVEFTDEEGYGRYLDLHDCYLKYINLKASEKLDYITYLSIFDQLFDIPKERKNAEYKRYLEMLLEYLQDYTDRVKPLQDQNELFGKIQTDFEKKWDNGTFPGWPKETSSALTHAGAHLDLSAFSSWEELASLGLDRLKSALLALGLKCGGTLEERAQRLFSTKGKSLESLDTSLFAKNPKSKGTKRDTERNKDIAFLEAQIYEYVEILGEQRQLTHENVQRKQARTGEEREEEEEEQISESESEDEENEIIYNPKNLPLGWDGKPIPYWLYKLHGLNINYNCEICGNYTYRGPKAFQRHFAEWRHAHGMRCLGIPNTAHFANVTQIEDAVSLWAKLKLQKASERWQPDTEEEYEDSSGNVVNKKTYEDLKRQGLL
# UniProt Q9CYK1: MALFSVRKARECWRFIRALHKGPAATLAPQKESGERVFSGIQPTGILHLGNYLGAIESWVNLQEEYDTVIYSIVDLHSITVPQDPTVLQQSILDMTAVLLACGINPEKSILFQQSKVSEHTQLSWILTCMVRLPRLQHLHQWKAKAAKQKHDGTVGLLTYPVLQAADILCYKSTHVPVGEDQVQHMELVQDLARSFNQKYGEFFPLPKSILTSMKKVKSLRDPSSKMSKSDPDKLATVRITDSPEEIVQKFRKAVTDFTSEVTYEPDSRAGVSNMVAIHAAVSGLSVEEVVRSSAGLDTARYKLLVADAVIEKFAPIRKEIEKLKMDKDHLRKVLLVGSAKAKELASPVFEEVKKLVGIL
# UniProt Q9D6J3: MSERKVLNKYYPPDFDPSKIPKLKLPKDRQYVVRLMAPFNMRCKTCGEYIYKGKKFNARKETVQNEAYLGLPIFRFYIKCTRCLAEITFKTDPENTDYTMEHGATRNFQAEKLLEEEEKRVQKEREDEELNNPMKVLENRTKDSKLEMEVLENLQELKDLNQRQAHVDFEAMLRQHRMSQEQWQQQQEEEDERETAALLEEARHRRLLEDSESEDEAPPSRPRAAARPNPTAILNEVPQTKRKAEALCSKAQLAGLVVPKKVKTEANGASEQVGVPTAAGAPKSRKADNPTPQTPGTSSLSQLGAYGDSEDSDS
# Some of the results follow. Small differences around the control level are noise.
# Compound: CN[C@@H]1C[C@H]2O[C@@](C)([C@@H]1OC)n1c3ccccc3c3c4c(c5c6ccccc6n2c5c31)C(=O)NC4 [staurosporine]
# Assay: log2 fold change of pooled soluble protein (PISA), ligand vs vehicle (log2 ratio); higher = more thermally stabilized
# Conditions: ligand concentration: 20 uM; assay format: PISA pool 52.9/55.5/58.6 C
row,Target,log2 fold change of pooled soluble protein
1,UniProt Q9D735,0.00726
2,UniProt Q9D0K1,-0.101
3,UniProt Q9DBG7,0.0752
4,UniProt Q9D620,-0.422
5,UniProt Q9D0I4,0.159
6,UniProt Q9CYU6,-0.417
7,UniProt Q9CXW3,0.0221
8,UniProt Q9DAS9,0.0277
9,UniProt Q9D920,-0.0765
10,UniProt Q9DBF7,0.123
11,UniProt Q9CY45,-0.15
12,UniProt Q9D1M0,0.0662
13,UniProt Q9DB34,0.06
14,UniProt Q9D8T7,-0.0912
15,UniProt Q9D938,-0.0897
16,UniProt Q9DC37,0.0545
17,UniProt Q9CZ30,-0.102
18,UniProt Q9D6J6,0.096
19,UniProt Q9DB94,0.386

# Nine successive records already listed, quoted:
row,Target,log2 fold change of pooled soluble protein
10,UniProt Q9DBF7,0.123
11,UniProt Q9CY45,-0.15
12,UniProt Q9D1M0,0.0662
13,UniProt Q9DB34,0.06
14,UniProt Q9D8T7,-0.0912
15,UniProt Q9D938,-0.0897
16,UniProt Q9DC37,0.0545
17,UniProt Q9CZ30,-0.102
18,UniProt Q9D6J6,0.096

# Later entries.

row,Target,log2 fold change of pooled soluble protein
1,UniProt Q9D1P4,-0.026
2,UniProt Q9DBC7,0.0612
3,UniProt Q9CYR6,-0.106
4,UniProt Q9D1M7,-0.0812
5,UniProt Q9D8B3,0.0256
6,UniProt Q9D198,-0.322
7,UniProt Q9D2C7,0.138
8,UniProt Q9CY50,-0.0239
9,UniProt Q9D0F9,0.0103
10,UniProt Q9DAR7,0.0119
11,UniProt Q9D4H2,0.0994
12,UniProt Q9D554,-0.134
13,UniProt Q9CYK1,-0.291
14,UniProt Q9D3D9,-0.0763
15,UniProt Q9DBL1,0.0848
16,UniProt Q9D8B6,-0.0165
17,UniProt Q9D6J3,0.0891
18,UniProt Q9DBB9,-0.179
